Assay [1] addresses 3×Myc-CARD19-ΔCARD (mouse) (UniProt Q9D1I2). The experiment in a line: co-IP; lysates of macrophages stably expressing Myc-tagged constructs, precleared, 2 µg mouse anti-Myc (9E10) 16 to 20 h at 4 °C, Protein G Sepharose, three washes; 50 mM Tris-HCl pH 7.5, 150 mM NaCl, 1% Triton X-100; Western blot. On the technique in general: In western blotting, separated proteins are transferred to a membrane and probed.

Sequences of proteins named here, by UniProt entry; tags and fusion partners are left off. A change or cut given only in a name is not applied to a line headed by its entry.
UniProt Q9D1I2: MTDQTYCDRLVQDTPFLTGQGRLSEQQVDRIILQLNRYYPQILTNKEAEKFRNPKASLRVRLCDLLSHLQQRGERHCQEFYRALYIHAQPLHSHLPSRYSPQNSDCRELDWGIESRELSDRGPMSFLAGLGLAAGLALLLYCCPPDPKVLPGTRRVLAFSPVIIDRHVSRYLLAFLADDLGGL

The target in a further assay is 3×Myc-CARD19-ΔTM (mouse) (UniProt Q9D1I2). Described as above.

The source of these data is PMC8997538.

No constants are given. Whether binding was seen depends on the method and setting. In cells and extracts the contact can be indirect. Binding can be weak; no strength is given.

B1: MIC25 (protein, UniProt Q91VN4 1-273)
chain: MGSAESAEARRVSFEMDEEERVRVLQGIRLSESVVNRMKDCSQPSAGEQLVPGFGPSSSAPVPTVPLPAISVPTVPAPTTPVPTAPSSSVRGLPGGTCKGPLTDVKVPSAESGGGLQSSAVKEDLKKFQQEQLAVQDEMVRVAKKEKEAAEKHLKASLPKKKASLTHEQQQSARLARELEDREAELSRRDTFYKEQQGRIQEKNAELYKLSSQQFHEAASKAESTIKPRRVEPVCSGLQAQILRCYRDHLHEVLLCSDLVKAYQHCVSTARKG
For the molecule B1, the binding entry in assay [1] was “binds”.

B2: SAMM50 (protein, UniProt Q8BGH2 1-469)
chain: MGTVHARSLEPLPSSGTDFGALGEEAEFVEVEPEAKQEILENKDVVVQHVHFDGLGRTKDDIIICEIGEVFKAKNLIEVMRRSHEAREKLLRLGIFRQVDVLIDTCHGEDALPNGLDVTFEVTELRRLTGSYNTMVGNNEGSMVLGLKLPNLLGRAEKVTFQFSYGTKETSYGLSFFKPQPGNFERNFSVNLYKVTGQFPWSSLRETDRGVSAEYSFPLWKTSHTVKWEGVWRELGCLSRTASFAVRKESGHSLKSSLSHAMVIDSRNSSILPRRGALFKVNQELAGYTGGDVSFIKEDFELQLNKPLALDSVFSTSLWGGMLVPIGDKPSSIADRFYLGGPTSVRGFSMHSIGPQSEGDYLGGEAYWAGGLHLYTPLPFRPGQGGFGELFRTHFFLNAGNLCNLNYGEGPKAHIRKLAECIRWSYGAGVVLRLGNIARLELNYCIPMGVQGGDRICDGVQFGAGIRFL
As to B2, the binding result was “binds weakly” with 3×Myc-CARD19-ΔTM (mouse) and “binds” in assay [1].

B3: MIC19 (protein, UniProt Q9CRB9 1-227)
chain: MGGTASTRRVTFEADENENITVVKGIRLSENVIDRMKESSPSGSKSQRYSSVYGASVSDEDLKRRVAEELALEQAKKESEHQRRLKQARDLERERAAANEQLTRAVLRERISSEEERMKAKHLARQLEEKDRVMRKQDAFYKEQLARLEERSSEFYKVTTEEYQKAAEEVEAKFKRYEYHPVCADLQTKILQCYRQNTQQTLSCSALASQYMHCVNHAKQSMLEKGG
As for B3, the binding entry is recorded as “binds weakly” with 3×Myc-CARD19-ΔTM (mouse) and “binds” in assay [1].
